Results deposited as PubChem BioAssay AID602196 (INSERM, 2012).
The whole screen tested about 23,000 reagents; below is a random part of them. Over the whole deposit, 455 (2%) are marked active. 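Active includes both protection and sensitisation; some change values fall well beyond the stated -50 to +50 range.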 Reagents against one gene are numbered here. Not all columns of the deposit are shown. Not given: the amount of reagent.

Screen: 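Knock-downs that protect lung cancer cells from cisplatin or sensitise them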
System: human A549 lung cancer cells
Knock-down reagent: siRNA pair against human genes
Time to read-out: 48 h transfection before cisplatin; time from cisplatin to read-out not stated
Challenge: cisplatin at a dose killing half of control-siRNA cells; exact dose and duration not given
Measured: 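Cisplatin cell death as a shift from the 50% death seen with control siRNA; siRNAs toxic or growth-blocking alone scored 0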
Scale: two-siRNA summed score (-2 to +2): higher = both siRNAs protect from cisplatin killing; -2 means both sensitise
Rule for the call: 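Each siRNA scores 0 if harmful alone by LDH or WST-1, otherwise +1 if it reduces and -1 if it increases cisplatin killing; a gene is active when both siRNAs agree (sum +2 or -2)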
Meaning of the calls: active = both siRNAs shift cisplatin killing the same way; inactive = no consistent shift, or siRNA harmful alone

The first 2 entries as a preview:
Target gene	reagent	two-siRNA summed score (-2 to +2)	Call
NSFL1C	1	0	inactive
LMAN2	1	0	inactive

Results, from the start:
Target gene	reagent	two-siRNA summed score (-2 to +2)	Call
NSFL1C	1	0	inactive
LMAN2	1	0	inactive
LOC441749	1	0	inactive
PLCL2	1	0	inactive
DDX3X	1	1	inactive
ITIH6	1	2	active
LOC391819	1	1	inactive
FAM107A	1	0	inactive
LOC440951	1	0	inactive
LOC440187	1	0	inactive
DAB2IP	1	0	inactive
SEPHS2	1	0	inactive
LOC389335	1	0	inactive
GABRB1	1	0	inactive
VAMP5	1	1	inactive
ZNF776	1	1	inactive
TWNK	1	0	inactive
LOC400847	1	0	inactive
PITX1	1	0	inactive
MPZ	1	-1	inactive
CD3E	1	0	inactive
ESRRB	1	0	inactive
LOC144245	1	0	inactive
TAX1BP3	1	0	inactive
ZSCAN2	1	0	inactive
LRRC59	1	0	inactive
VSIG2	1	0	inactive
APOA4	1	1	inactive
ATPSCKMT	1	2	active
FAM234A	1	1	inactive
TMSB15B	1	1	inactive
FLJ32731	1	0	inactive
KIAA2002	1	0	inactive
CREB5	1	1	inactive
DNAL4	1	0	inactive
LOC402720	1	0	inactive
SAP18P2	1	0	inactive
SIPA1L3	1	0	inactive
AGPAT1	1	0	inactive
LOC388204	1	0	inactive
LYPLA1	1	1	inactive
VMP1	1	-1	inactive
C11orf24	1	-1	inactive
RAB41	1	1	inactive
LOC440520	1	0	inactive
LOC389174	1	0	inactive
HAX1	1	0	inactive
HAX1	2	1	inactive
IL1RAP	1	0	inactive
EFL1P1	1	0	inactive
BMP2KL	1	0	inactive
NOA1	1	1	inactive
LOC391003	1	1	inactive
LOC343515	1	0	inactive
ENPP2	1	1	inactive
EFCAB13	1	-1	inactive
TMEM260	1	0	inactive
